The values below come from the supplement of paper PMC10849652.

Sequences of proteins named here, by UniProt entry; tags and fusion partners are left off. A change or cut given only in a name is not applied to a line headed by its entry.
UniProt Q6KCM7: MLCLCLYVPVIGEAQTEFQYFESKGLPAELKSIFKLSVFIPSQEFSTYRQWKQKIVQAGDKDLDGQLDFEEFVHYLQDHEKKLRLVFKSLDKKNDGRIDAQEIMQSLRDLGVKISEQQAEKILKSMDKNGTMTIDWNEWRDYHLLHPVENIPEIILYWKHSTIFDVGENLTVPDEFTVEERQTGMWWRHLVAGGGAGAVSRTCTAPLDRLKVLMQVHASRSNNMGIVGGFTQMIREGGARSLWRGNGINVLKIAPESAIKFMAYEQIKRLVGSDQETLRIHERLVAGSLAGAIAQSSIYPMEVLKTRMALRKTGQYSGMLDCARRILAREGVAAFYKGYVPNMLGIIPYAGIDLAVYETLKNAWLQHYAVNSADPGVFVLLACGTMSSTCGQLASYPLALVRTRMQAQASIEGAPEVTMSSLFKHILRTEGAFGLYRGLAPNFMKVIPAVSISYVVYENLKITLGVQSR
UniProt Q9H1U9: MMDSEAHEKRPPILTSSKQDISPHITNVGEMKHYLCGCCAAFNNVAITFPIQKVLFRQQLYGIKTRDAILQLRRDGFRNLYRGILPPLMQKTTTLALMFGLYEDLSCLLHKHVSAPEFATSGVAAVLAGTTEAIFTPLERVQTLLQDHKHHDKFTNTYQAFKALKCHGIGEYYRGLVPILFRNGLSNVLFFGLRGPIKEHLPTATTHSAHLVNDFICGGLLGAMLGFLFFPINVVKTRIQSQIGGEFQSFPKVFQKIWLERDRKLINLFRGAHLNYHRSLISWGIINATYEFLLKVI
UniProt Q01650: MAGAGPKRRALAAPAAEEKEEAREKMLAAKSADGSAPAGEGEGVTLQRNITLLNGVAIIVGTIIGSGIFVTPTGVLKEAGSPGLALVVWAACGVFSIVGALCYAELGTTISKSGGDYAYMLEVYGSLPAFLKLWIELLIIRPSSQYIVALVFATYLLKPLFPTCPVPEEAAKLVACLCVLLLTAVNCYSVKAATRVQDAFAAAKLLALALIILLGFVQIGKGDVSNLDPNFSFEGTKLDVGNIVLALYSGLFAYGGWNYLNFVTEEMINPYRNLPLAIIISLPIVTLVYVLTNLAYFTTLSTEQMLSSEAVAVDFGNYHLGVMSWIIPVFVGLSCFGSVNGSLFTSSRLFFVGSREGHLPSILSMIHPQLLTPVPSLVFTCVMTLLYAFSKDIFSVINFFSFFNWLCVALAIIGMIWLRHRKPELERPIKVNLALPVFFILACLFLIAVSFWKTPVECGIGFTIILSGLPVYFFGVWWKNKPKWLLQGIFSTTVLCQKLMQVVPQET
UniProt Q8TBP6: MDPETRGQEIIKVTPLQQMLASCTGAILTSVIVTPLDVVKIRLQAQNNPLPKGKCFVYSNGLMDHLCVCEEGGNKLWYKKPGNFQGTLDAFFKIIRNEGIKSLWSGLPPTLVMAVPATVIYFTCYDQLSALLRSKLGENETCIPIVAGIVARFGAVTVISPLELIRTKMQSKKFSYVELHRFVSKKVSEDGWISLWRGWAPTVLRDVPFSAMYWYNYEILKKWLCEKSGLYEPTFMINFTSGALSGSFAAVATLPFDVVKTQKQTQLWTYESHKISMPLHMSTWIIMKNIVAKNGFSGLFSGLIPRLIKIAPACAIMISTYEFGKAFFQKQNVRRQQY
UniProt O95391: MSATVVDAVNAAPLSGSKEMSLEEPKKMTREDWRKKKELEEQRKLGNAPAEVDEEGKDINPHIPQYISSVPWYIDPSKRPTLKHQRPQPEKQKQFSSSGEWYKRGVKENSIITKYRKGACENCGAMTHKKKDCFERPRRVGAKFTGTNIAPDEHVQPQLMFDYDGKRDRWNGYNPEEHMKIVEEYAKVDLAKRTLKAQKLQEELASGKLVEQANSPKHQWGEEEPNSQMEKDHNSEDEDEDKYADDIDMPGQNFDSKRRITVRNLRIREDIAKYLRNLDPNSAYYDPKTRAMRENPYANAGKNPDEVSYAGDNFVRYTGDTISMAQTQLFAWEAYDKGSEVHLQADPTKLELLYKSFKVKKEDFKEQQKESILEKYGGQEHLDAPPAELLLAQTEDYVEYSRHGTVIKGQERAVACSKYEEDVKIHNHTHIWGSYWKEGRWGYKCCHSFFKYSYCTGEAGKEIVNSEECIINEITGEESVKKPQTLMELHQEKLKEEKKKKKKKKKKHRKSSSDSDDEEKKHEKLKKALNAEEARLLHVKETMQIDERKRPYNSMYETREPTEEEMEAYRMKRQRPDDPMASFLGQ
UniProt Q6NXT4: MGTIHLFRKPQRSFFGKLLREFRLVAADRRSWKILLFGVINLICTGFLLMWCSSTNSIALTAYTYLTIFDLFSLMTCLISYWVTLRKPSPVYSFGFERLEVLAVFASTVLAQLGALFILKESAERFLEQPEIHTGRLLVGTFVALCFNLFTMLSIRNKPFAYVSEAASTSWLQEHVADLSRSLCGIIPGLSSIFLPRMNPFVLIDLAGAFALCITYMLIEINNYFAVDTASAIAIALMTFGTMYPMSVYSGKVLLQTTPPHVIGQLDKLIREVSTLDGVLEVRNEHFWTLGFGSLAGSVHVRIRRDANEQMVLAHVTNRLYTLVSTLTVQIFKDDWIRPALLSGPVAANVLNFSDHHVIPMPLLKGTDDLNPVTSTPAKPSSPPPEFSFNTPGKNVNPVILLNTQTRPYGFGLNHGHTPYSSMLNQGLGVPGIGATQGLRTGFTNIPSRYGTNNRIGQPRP
UniProt Q9H2H9: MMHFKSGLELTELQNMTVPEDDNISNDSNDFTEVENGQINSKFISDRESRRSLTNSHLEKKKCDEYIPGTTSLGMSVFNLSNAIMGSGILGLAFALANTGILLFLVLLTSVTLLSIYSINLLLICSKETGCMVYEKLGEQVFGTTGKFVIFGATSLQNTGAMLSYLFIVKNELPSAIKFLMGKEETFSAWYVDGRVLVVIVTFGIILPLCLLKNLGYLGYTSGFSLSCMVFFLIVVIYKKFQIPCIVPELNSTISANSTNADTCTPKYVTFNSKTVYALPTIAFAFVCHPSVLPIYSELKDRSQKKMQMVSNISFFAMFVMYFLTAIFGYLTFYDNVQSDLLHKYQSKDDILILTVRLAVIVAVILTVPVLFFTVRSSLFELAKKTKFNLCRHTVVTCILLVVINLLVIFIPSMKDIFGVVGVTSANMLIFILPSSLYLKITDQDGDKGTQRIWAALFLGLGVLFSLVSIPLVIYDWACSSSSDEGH
UniProt Q02978: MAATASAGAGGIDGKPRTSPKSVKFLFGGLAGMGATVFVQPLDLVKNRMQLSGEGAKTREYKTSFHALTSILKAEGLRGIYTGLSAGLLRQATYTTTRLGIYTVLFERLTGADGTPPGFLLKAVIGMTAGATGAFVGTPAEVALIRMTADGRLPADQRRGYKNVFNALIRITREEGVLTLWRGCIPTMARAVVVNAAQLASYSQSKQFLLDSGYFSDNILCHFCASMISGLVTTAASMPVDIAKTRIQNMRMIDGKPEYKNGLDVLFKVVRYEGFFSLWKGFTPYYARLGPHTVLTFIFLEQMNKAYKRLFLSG
UniProt Q9NP59: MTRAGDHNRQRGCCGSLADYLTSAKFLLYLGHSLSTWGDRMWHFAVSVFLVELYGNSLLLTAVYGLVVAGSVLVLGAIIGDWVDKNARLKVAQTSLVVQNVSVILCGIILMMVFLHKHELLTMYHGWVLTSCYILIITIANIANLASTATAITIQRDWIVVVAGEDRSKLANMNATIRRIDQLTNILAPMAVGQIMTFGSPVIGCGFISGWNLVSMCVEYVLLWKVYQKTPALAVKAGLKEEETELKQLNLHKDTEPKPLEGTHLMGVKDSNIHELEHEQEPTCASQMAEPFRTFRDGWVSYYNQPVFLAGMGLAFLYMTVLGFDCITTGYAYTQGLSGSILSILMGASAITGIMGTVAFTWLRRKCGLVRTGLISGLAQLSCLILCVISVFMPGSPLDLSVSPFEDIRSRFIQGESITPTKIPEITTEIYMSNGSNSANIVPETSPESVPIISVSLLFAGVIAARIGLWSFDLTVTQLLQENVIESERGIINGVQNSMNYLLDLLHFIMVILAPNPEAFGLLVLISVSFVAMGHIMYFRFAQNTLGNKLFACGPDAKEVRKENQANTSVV
UniProt Q9BZJ4: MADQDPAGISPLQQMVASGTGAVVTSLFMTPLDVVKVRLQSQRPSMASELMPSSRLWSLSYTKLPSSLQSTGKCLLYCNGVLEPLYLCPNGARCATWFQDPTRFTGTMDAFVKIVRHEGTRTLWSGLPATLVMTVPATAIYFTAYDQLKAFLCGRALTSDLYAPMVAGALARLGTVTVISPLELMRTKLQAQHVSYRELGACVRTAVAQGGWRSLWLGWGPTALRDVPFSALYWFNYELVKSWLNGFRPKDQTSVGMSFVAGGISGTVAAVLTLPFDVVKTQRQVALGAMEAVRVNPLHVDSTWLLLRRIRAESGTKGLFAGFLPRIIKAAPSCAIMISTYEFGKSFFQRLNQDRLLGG
UniProt F5GZS6: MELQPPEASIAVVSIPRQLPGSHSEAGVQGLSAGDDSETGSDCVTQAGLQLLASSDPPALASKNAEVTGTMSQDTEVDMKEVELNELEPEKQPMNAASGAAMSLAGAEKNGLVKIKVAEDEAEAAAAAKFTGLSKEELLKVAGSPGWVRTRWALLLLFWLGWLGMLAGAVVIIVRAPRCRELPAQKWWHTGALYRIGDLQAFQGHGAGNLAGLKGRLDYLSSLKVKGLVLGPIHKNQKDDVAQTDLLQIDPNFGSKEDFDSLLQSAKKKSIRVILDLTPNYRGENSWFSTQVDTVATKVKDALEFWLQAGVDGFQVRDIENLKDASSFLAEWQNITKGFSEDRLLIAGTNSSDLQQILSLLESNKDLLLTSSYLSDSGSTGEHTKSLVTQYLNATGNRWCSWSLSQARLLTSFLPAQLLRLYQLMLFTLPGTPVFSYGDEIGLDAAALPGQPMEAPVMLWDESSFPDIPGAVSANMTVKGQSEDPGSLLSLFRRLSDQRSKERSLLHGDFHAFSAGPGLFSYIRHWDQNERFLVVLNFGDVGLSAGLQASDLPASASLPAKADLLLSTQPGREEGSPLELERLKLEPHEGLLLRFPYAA
UniProt P11169: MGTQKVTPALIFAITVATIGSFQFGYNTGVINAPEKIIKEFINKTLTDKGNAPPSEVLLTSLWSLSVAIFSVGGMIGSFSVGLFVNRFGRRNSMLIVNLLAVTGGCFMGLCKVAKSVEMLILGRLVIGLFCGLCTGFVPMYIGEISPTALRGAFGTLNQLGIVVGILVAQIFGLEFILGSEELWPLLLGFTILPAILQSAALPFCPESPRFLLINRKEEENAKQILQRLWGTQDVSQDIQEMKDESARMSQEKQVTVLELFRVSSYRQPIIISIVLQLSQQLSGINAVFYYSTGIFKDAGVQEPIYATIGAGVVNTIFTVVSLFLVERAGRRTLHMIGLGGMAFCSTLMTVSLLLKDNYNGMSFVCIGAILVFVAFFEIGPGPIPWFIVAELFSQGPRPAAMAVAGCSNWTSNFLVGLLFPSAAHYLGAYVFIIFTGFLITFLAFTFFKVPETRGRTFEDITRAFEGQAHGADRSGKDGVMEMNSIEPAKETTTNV
UniProt Q99717: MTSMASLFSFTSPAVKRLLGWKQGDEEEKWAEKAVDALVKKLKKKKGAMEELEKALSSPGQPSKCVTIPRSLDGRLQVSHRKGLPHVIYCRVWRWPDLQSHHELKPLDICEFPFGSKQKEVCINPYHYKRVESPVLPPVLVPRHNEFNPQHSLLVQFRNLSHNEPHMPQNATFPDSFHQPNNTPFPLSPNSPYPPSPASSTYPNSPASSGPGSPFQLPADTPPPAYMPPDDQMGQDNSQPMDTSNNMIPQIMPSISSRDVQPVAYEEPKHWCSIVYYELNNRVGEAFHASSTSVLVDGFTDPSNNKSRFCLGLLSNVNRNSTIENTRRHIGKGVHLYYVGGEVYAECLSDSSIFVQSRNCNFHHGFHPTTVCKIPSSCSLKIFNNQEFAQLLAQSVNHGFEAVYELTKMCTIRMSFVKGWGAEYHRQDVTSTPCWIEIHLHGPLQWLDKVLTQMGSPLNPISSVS
UniProt Q6P1K1: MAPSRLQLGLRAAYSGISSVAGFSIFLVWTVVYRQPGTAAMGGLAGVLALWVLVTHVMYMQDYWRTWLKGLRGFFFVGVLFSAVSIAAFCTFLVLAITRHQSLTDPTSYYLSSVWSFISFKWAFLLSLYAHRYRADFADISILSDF
UniProt Q96A29: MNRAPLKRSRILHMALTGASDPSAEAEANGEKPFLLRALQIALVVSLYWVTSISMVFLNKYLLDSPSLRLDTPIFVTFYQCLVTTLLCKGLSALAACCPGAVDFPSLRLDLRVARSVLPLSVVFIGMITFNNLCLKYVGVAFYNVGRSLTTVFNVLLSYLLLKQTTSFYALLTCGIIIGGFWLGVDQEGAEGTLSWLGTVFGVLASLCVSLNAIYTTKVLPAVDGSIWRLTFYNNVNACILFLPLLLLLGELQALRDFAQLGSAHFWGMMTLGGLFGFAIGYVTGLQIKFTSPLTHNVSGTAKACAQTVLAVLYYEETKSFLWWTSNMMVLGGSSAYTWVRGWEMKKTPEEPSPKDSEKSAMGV

The list shows a part of the results.

Compound in the first assay: Cc1nc(Nc2ncc(C(=O)Nc3c(C)cccc3Cl)s2)cc(N2CCN(CCO)CC2)n1 [dasatinib]
The assay is described as follows: log2 fold change, soluble protein after heating vs DMSO (PISA); higher = thermal stabilisation; K562 lysate, 10 uM; active = over 0.2 and 3.5 SD of the protein, either way, in both replicates (recomputed). In short, it runs like this: (§1)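 Pellets of K562 cells were dounce-homogenised in PBS pH 7.4 with 1 mM MgCl2, and the crude extract was held at 1 mg/mL protein for a 30 min treatment with 10 μM compound. Aliquots were heated for 3 min over 48°C-58°C and pooled before NP-40 was added to 0.5% at 4°C. The supernatant from 21,000xg for 90 min was quantified by TMTpro 16plex LC-MS/MS with channel sums equalised. Values are reported from duplicates as log-two fold change in thermal stability relative to solvent controls.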
As to SLC25A25 isoform 3 (UniProt Q6KCM7), the log2 fold change was inactive: 0.03. Same read-out and setting: the figure for SLC35F2 (UniProt Q8IXU6) is inactive: 0.036; for SLC9A8 isoform 2 (UniProt Q9Y2E8) it is inactive: 0.118; for SLC39A14 (UniProt Q15043) it is inactive: -0.002. For SMAP (UniProt O00193), the log2 fold change was inactive: 0.127. The same measure, in the same setting: the figure for SLC25A51 (UniProt Q9H1U9) is inactive: 0.027; for SLC7A5 (UniProt Q01650) it is inactive: 0.055; for SLC38A10 (UniProt Q9HBR0) it is inactive: -0.009. On the same count and under the same terms, the same measure for SLC25A40 (UniProt Q8TBP6): inactive: 0.025.

Take SLC6A8 isoform 2 (UniProt P48029): the log2 fold change is inactive: 0.034.

Compound in another assay: Cc1ncc(-c2ccnc(Nc3ccc(S(C)(=O)=O)cc3)n2)n1C(C)C
Described as above. In short, it runs like this: as §1
With SLC39A7 (UniProt Q92504), the log2 fold change is inactive: 0.031.

As for SLC38A9 (UniProt Q8NBW4), the log2 fold change is inactive: 0.016. Same read-out and setting: the figure for SLU7 (UniProt O95391) is inactive: 0.047.

For SLC30A6 isoform 2 (UniProt Q6NXT4), the log2 fold change was inactive: -0.067. The same measure, in the same setting: the same measure for SLC25A24 (UniProt Q6NUK1): inactive: -0.015. Same read-out and setting: the same measure for SLC3A2 isoform 3 (UniProt P08195): inactive: 0.021; for SLC38A1 (UniProt Q9H2H9): inactive: -0.002. On the same count and under the same terms, the same measure for SLC4A1AP (UniProt Q9BWU0): inactive: 0.002; for SLC25A5 (UniProt P05141): inactive: 0.03. For SLC35F6 (UniProt Q8N357), the log2 fold change is inactive: -0.018.

On to SLC25A11 (UniProt Q02978), for which the log2 fold change was inactive: 0.007. On to SLC66A2 (UniProt Q8N2U9), for which the log2 fold change is inactive: -0.097. Still for that read-out and setting: the figure for SLC40A1 (UniProt Q9NP59) is inactive: 0.015; for SLC25A39 (UniProt Q9BZJ4) it is inactive: 0.004.

With SLC39A8 (UniProt Q9C0K1), the log2 fold change is inactive: 0.038.

For SLC3A2 (UniProt F5GZS6), the log2 fold change is inactive: -0.02. On the same count and under the same terms, the figure for SLC2A3 (UniProt P11169) is inactive: -0.065; for SLC66A1 (UniProt Q6ZP29) it is inactive: -0.129; for SMAD5 (UniProt Q99717) it is inactive: 0.031. On to SLC48A1 (UniProt Q6P1K1), for which the log2 fold change is inactive: 0.186.

On to SLC33A1 (UniProt O00400), for which the log2 fold change was inactive: -0.003. Take SLC25A33 (UniProt Q9BSK2): the log2 fold change is inactive: -0.007.

For the target SLC25A22 (UniProt Q9H936), the log2 fold change is inactive: 0.007. On the same count and under the same terms, the figure for SLC35C1 (UniProt Q96A29) is inactive: 0.095; for SLC39A10 (UniProt Q9ULF5) it is inactive: 0.003; for SLC25A46 (UniProt Q96AG3) it is inactive: -0.017.

Regarding SLC4A7 isoform 7 (UniProt Q9Y6M7), the log2 fold change was inactive: 0.016. Same read-out and setting: the same measure for SLC25A25 isoform 3 (UniProt Q6KCM7): inactive: -0.063; for SLC35F2 (UniProt Q8IXU6): inactive: 0.052; for SLC35B4 (UniProt Q969S0): inactive: -0.004. Same read-out and setting: the figure for SLC9A8 isoform 2 (UniProt Q9Y2E8) is inactive: -0.09; for SLC39A14 (UniProt Q15043) it is inactive: 0.016. The same measure, in the same setting: the figure for SMAP (UniProt O00193) is inactive: 0.071; for SLC25A51 (UniProt Q9H1U9) it is inactive: -0.003. On to SLC7A5 (UniProt Q01650), for which the log2 fold change is inactive: 0.014. SLC38A10 (UniProt Q9HBR0): the log2 fold change is inactive: 0.05.

Regarding SLC25A40 (UniProt Q8TBP6), the log2 fold change is inactive: -0.012.

SLC6A8 isoform 2 (UniProt P48029): the log2 fold change is inactive: -0.019.
